Results reported in paper PMC11128406.
These are yes or no findings as the source states them, for the method shown. In cells and extracts the contact can be indirect. Some binding calls cover weakened binding; strength is not graded here.

Molecular target: Pleckstrin homology domain containing protein family member 1 (PLEKHM1) (human (in HUVECs)), Q9Y4G2
Assay: co-IP; HUVECs lysed in precooled RIPA, precleared with Protein A/G agarose, antibody overnight, captured on Protein A agarose at 4 C, washed three times, Western blot
Settings: remark: other sources report otherwise

B1: hVps41, P49754 1-854 (protein)
chain: MAEAEEQETGSLEESTDESEEEESEEEPKLKYERLSNGVTEILQKDAASCMTVHDKFLALGTHYGKVYLLDVQGNITQKFDVSPVKINQISLDESGEHMGVCSEDGKVQVFGLYSGEEFHETFDCPIKIIAVHPHFVRSSCKQFVTGGKKLLLFERSWMNRWKSAVLHEGEGNIRSVKWRGHLIAWANNMGVKIFDIISKQRITNVPRDDISLRPDMYPCSLCWKDNVTLIIGWGTSVKVCSVKERHASEMRDLPSRYVEIVSQFETEFYISGLAPLCDQLVVLSYVKEISEKTEREYCARPRLDIIQPLSETCEEISSDALTVRGFQENECRDYHLEYSEGESLFYIVSPRDVVVAKERDQDDHIDWLLEKKKYEEALMAAEISQKNIKRHKILDIGLAYINHLVERGDYDIAARKCQKILGKNAALWEYEVYKFKEIGQLKAISPYLPRGDPVLKPLIYEMILHEFLESDYEGFATLIREWPGDLYNNSVIVQAVRDHLKKDSQNKTLLKTLAELYTYDKNYGNALEIYLTLRHKDVFQLIHKHNLFSSIKDKIVLLMDFDSEKAVDMLLDNEDKISIKKVVEELEDRPELQHVYLHKLFKRDHHKGQRYHEKQISLYAEYDRPNLLPFLRDSTHCPLEKALEICQQRNFVEETVYLLSRMGNSRSALKMIMEELHDVDKAIEFAKEQDDGELWEDLILYSIDKPPFITGLLNNIGTHVDPILLIHRIKEGMEIPNLRDSLVKILQDYNLQILLREGCKKILVADSLSLLKKMHRTQMKGVLVDEENICESCLSPILPSDAAKPFSVVVFHCRHMFHKECLPMPSMNSAAQFCNICSAKNRGPGSAILEMKK
B1 was tested, and the binding was “binds”.
